In PubChem BioAssay AID2685 (National Center for Advancing Translational Sciences (NCATS), 2010):
Some of the results follow. Shown are side measurements of this screen, not its main read-out; they come without a call. Most of these compounds were active or inconclusive in the main read-out, so they are no random draw. Words in brackets tell the shape of the fitted curve; partial curves, single points and poor fits give uncertain potencies.

Assay: qHTS Assay for Lipid Storage Modulators in Drosophila S3 Cells;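 on cell number change: cells counted by Cell Tracker Red CMTPX staining in the red channel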
Settings: BODIPY lipid droplet fluorescence, 18-24 h; for cell number change: measured here: cell count max response, cells fed with added oleic acid
In short: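 Drosophila S3 cells got compounds at several concentrations plus oleic acid (400 uM solution). Laser-scanning cytometry with 488 nm excitation read lipid droplets at 500-530 nm and cells at 575-640 nm. Percent activity was relative to 20 uM Triacsin C.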

[1] = measured here: lipid fluorescence (Fed channel) AC50, cells fed with added oleic acid
[2] = measured here: cell number channel AC50, cells fed with added oleic acid

Structure (SMILES)	cell number change	AC50 [1]	AC50 [2]
C#Cc1ccc(CN2CCC(Oc3ccc(C(=O)NCc4ccccn4)cc3)CC2)cc1	-41.6%	–	–
CC(Cc1ccsc1)NC(=O)CCc1nnc(COc2ccccc2)o1 (configuration not stated)	-28.6%	0.164 µM [falling, full curve]	–
COc1ccc(Nc2nc(NC(C)(C)C)nc(N3CCCC3)n2)c(OC)c1	–	2.31 µM [rising, partial curve]	6.51 µM [rising, single point]
Cc1ccc(NC(=O)CN(C)C(=O)c2ccc(Cl)nc2)cc1	2.63%	0.398 µM [falling, single point]	–
Cc1cc(C)c(C)c(S(=O)(=O)N2CCN(c3ccc(O)cc3)CC2)c1C	30.3%	23.1 µM [rising, single point]	20.6 µM [rising, single point]
Cc1ccc(-n2nnnc2CNC(=O)c2ccc([N+](=O)[O-])o2)cc1C	30.8%	13 µM [falling, single point]	2.91 µM [rising, full curve]
CC(=O)N(C1=C(O)c2ccccc2C(=O)C1=O)C1CCCCC1	-3.85%	7.31 µM [falling, single point]	–
CSc1ncccc1C(=O)OCC(=O)NC(C)C	37.4%	29.1 µM [rising, single point]	–
CN(C)S(=O)(=O)c1ccc(Cl)c(NC(=O)CSc2nc3c(cc2C#N)C(=O)CC(C)(C)C3)c1	-41.8%	1.64 µM [falling, partial curve]	1.03 µM [falling, full curve]
COc1ccc(C2/C(=C(/O)c3ccc(C)cc3)C(=O)C(=O)N2c2ccccn2)cc1 (configuration not stated)	23.9%	–	0.00651 µM [rising, full curve, poor fit]
O=C(Nc1ccc(Cl)cc1)c1cnc(-c2ccccc2)nc1-c1ccccc1	–	1.64 µM [falling, partial curve, poor fit]	0.259 µM [falling, full curve, poor fit]
CCCC12CN3CCN(CC(C3)/C1=N\NC(=O)Nc1ccccc1)C2	4.9%	–	–
COc1cc(OC)c(C(=O)NC2CC(C)(C)NC(C)(C)C2)cc1OC	-46.1%	29.1 µM [falling, single point]	29.1 µM [falling, single point]
Cc1cc(C)cc(C(=O)NCC(=O)OCC(=O)N(C)c2ccccc2)c1	–	6.51 µM [rising, single point]	–
Cc1ccc(C)c2[nH]c(=O)c(CN(CC3CCCO3)S(=O)(=O)c3ccc4c(c3)OCCO4)cc12 (configuration not stated)	5.5%	–	–
COc1ccc(Cl)cc1NC(=O)CN(C1CCCCC1)S(C)(=O)=O	3.58%	8.2 µM [rising, partial curve]	–
COc1ccc(/C=N/NC(=O)CNC(=O)c2ccncc2)cc1OC	12.5%	29.1 µM [falling, single point]	–
O=C(CN1CCCc2ccccc21)N/N=C/c1ccccc1	1.34%	16.4 µM [rising, partial curve]	–
COc1ccc(NC(=O)C2CCCN(c3nc(C)cc(C)n3)C2)cc1 (configuration not stated)	–	8.2 µM [rising, partial curve, poor fit]	–

Limited to AC50 [1] and cell number change (3 entries from above):
Structure (SMILES)	AC50 [1]	cell number change
C#Cc1ccc(CN2CCC(Oc3ccc(C(=O)NCc4ccccn4)cc3)CC2)cc1	–	-41.6%
CC(Cc1ccsc1)NC(=O)CCc1nnc(COc2ccccc2)o1 (configuration not stated)	0.164 µM [falling, full curve]	-28.6%
COc1ccc(Nc2nc(NC(C)(C)C)nc(N3CCCC3)n2)c(OC)c1	2.31 µM [rising, partial curve]	–

The list continues.

Structure (SMILES)	cell number change	AC50 [1]	AC50 [2]
Cc1nnc(SCC(=O)c2cc(C)n(-c3c(C)n(C)n(-c4ccccc4)c3=O)c2C)s1	-3.32%	–	0.184 µM [rising, full curve, poor fit]
N#CC(CO)(Cc1ccc(OC(F)F)cc1)c1nc2ccccc2[nH]1 (configuration not stated)	4.15%	6.51 µM [rising, single point]	–
O=[N+]([O-])c1ccc(OCCN2CCNCC2)cc1	-30.7%	23.1 µM [falling, partial curve]	29.1 µM [falling, single point]
Cc1nc2cc(C)c(C)cc2s1	-5.78%	0.517 µM [rising, full curve, poor fit]	–
N#Cc1ccc(C2N=C(c3ccccc3)NO2)cc1 (configuration not stated)	-11.4%	–	–
COc1ccc(N(C(=O)c2cccnc2)S(=O)(=O)c2cccc([N+](=O)[O-])c2)cc1	-25.8%	–	–
COc1ccc(C(=O)Cn2c(C)nc([N+](=O)[O-])c2Br)cc1	-8.54%	1.03 µM [falling, full curve]	–
CCOc1ccc(NC(=O)c2ccccc2NC(=O)CN(C)CC(=O)Nc2ccc(C)cc2)cc1	-12.5%	6.51 µM [falling, single point]	–
COc1ccc(OC)c(NC(=O)C2CCN(Cc3cnn(-c4ccccc4)c3-n3cccc3)CC2)c1	-9.79%	20.6 µM [rising, partial curve]	–
O=C(COC(=O)c1cccs1)NCCc1ccc(F)cc1	12.4%	–	–
S=c1nc[nH]c2c1cnn2Cc1ccccc1	3.86%	–	–
O=S(=O)(NC1CCCCC1NCc1ccco1)c1ccccc1 (configuration not stated)	-24.9%	11.6 µM [falling, partial curve, poor fit]	–
Cc1ccc(CNS(=O)(=O)c2cn(C)cn2)cc1	14.5%	0.651 µM [falling, single point]	–
COc1ccc([C@H]2CC(=O)C=C(c3cc(Cl)ccc3C)C2)cc1	-5.17%	0.651 µM [falling, partial curve]	0.00461 µM [falling, full curve, poor fit]
Cc1ccc(Cn2c(S(=O)(=O)O)nc3ccccc32)cc1	1.61%	0.164 µM [falling, full curve, poor fit]	–
Cc1cc(C(=O)CN2C(=O)NC3(CCCc4ccccc43)C2=O)c(C)n1Cc1ccccc1 (configuration not stated)	-1.53%	20.6 µM [rising, partial curve]	–
O=C(OCCN1C(=O)c2ccccc2C1=O)C1CCN(S(=O)(=O)c2cccs2)CC1	–	0.116 µM [rising, full curve, poor fit]	0.116 µM [rising, full curve, poor fit]
O=C(Cc1ccc(NC2=NC3CS(=O)(=O)CC3S2)cc1)Nc1ccc(F)cc1 (configuration not stated)	17.9%	–	–
Cc1noc(C)c1C(=O)NCCCc1ccccc1	4.3%	0.411 µM [falling, full curve, poor fit]	–
